Experiment: Metabolites detected (Appendix 3, Tables 7 and 8: putative metabolites, ratio between two groups, p-value)
Details: for Concentration (μM) Control Mean / Relative Area Control Mean: Control group; for Concentration (μM) Control Mean / Concentration (μM) Treatment Mean: quantitative estimation of target metabolites; for Concentration (μM) Treatment Mean / Relative Area Treatment Mean: Treatment group; for Relative Area Control Mean / Relative Area Treatment Mean: putative metabolite assigned by m/z and MT (HMT DB); for Comparative Analysis Control vs Treatment Ratio: ratio of averaged detection values, the latter (Treatment) as denominator

Row | Compound | Concentration (μM) Control Mean | Concentration (μM) Treatment Mean | Relative Area Control Mean | Relative Area Treatment Mean | Comparative Analysis Control vs Treatment Ratio
1 | CC[C@H](C)[C@H](N)C(=O)O [Ile] | 84 µM | 97 µM |  |  | 
2 | N[C@@H](CO)C(=O)O [Ser] | 103 µM | 129 µM |  |  | 
3 | C[N+](C)(C)CCO [Choline] | 23 µM | 22 µM |  |  | 
4 | N[C@@H](CCC(=O)O)C(=O)O [Glu] | 25 µM | 32 µM |  |  | 
5 | CSCC[C@H](N)C(=O)O [Met] | 32 µM | 51 µM |  |  | 
6 | CN(CC(=O)O)C(=N)N [Creatine] | 124 µM | 156 µM |  |  | 
7 | O=P(O)(O)OCC(O)CO (stereo not drawn) [Glycerol 3-phosphate] | 11 µM | 11 µM |  |  | 
8 | NC(=O)CC[C@H](N)C(=O)O [Gln] | 672 µM | 729 µM |  |  | 
9 | N[C@@H](Cc1ccc(O)cc1)C(=O)O [Tyr] | 76 µM | 95 µM |  |  | 
10 | Nc1ncnc2c1ncn2[C@@H]1O[C@H](COP(=O)(O)O)[C@@H](O)[C@H]1O [AMP] | 3.4 µM | 5.1 µM |  |  | 
11 | NCCCC[C@H](N)C(=O)O [Lys] | 230 µM | 287 µM |  |  | 
12 | NCCC(=O)N[C@@H](Cc1cnc[nH]1)C(=O)O [Carnosine] | 0.6 µM | 0.6 µM |  |  | 
13 | O=C(O)CC(C(=O)O)C(O)C(=O)O (stereo not drawn) [Isocitric acid] | 26 µM | 26 µM |  |  | 
14 | Cysteine glutathione disulfide |  |  | 6.2E−03 | 4.9E−03 | 1.2
15 | CC(O)C(=O)O (stereo not drawn) [Lactic acid] | 4,704 μM | 6,362 μM |  |  | 
16 | O=C(O)CCC(=O)C(=O)O [2-Oxoglutanic acid] | 47 µM | 72 µM |  |  | 
17 | C[C@@H](O)[C@H](N)C(=O)O [Thr] | 122 µM | 148 µM |  |  | 
18 | O=C(O)CO [Glycolic acid] | 72 µM | 74 µM |  |  | 
19 | CNCC(=O)O [Sarcosine] | 8.4 µM | 9.8 µM |  |  | 
20 | NC(=O)NCCC[C@H](N)C(=O)O [Citrulline] | 63 µM | 70 µM |  |  | 

Row | Compound | Concentration (μM) Control Mean | Concentration (μM) Treatment Mean | Relative Area Control Mean | Relative Area Treatment Mean | Comparative Analysis Control vs Treatment Ratio
21 | CCC(O)C(=O)O (stereo not drawn) [2-Hydroxybutyric acid] | 27 µM | 25 µM |  |  | 
22 | N[C@@H](Cc1ccccc1)C(=O)O [Phe] | 76 µM | 101 µM |  |  | 
23 | O=C(O)[C@@H]1CCCN1 [Pro] | 73 µM | 96 µM |  |  | 
24 | CC(C)[C@H](N)C(=O)O [Val] | 191 µM | 222 µM |  |  | 
25 | O=C(CO)[C@H](O)[C@H](O)COP(=O)(O)O [Ribulose 5-phosphate] | 2.8 µM | 3.0 µM |  |  | 
26 | CC(=O)C(=O)O [Pyruvic acid] | 137 µM | 177 µM |  |  | 
27 | C[N+](C)(C)CC(=O)O [Bataine] | 68 µM | 75 µM |  |  | 
28 | N[C@@H](CC(=O)O)C(=O)O [Asp] | 6.3 µM | 8.3 µM |  |  | 
29 | Nc1ncnc2c1ncn2[C@@H]1O[C@H](COP(=O)(O)OP(=O)(O)OP(=O)(O)O)[C@@H](O)[C@H]1O [ATP] | 2.5 µM | 13 µM |  |  | 
30 | NC(=O)C[C@H](N)C(=O)O [Asn] | 33 µM | 51 µM |  |  | 
31 | N=C(N)NCCC[C@H](N)C(=O)O [Arg] | 90 µM | 111 µM |  |  | 
32 | CC(C)C(=O)C(=O)O [2-Oxoisovaleric acid] | 7.6 µM | 6.6 µM |  |  | 
33 | CN(C)CC(=O)O [N,N-Dimethylglycine] | 5.8 µM | 5.7 µM |  |  | 
34 | O=CC(=O)O [Glyoxylic acid] | 15 µM | 16 µM |  |  | 
35 | Cc1cn([C@H]2C[C@H](O)[C@@H](CO)O2)c(=O)[nH]c1=O [Thymidine] | 3.9 µM | 4.0 µM |  |  | 
36 | N[C@@H](CCO)C(=O)O [Homoserine] | 0.9 µM | 0.9 µM |  |  | 
37 | NCCC(=O)O [β-Ala] | 1.2 µM | 1.3 µM |  |  | 
38 | NCCCC(=O)O [GABA] | 0.4 µM | 1.0 µM |  |  | 
39 | NCC(=O)O [Gly] | 327 µM | 319 µM |  |  | 
40 | O=C(O)CC(O)C(=O)O (stereo not drawn) [Malic acid] | 60 µM | 75 µM |  |  | 

Row | Compound | Concentration (μM) Control Mean | Concentration (μM) Treatment Mean | Relative Area Control Mean | Relative Area Treatment Mean | Comparative Analysis Control vs Treatment Ratio
41 | Nc1nc2c(ncn2[C@@H]2O[C@H](COP(=O)(O)OP(=O)(O)OP(=O)(O)O)[C@@H](O)[C@H]2O)c(=O)[nH]1 [GTP] |  | 4.5 µM |  |  | 
42 | N[C@@H](Cc1c[nH]c2ccccc12)C(=O)O [Trp] | 70 µM | 88 µM |  |  | 
43 | O=C(O)[C@@H]1C[C@@H](O)CN1 [Hydroxyproline] | 17 µM | 18 µM |  |  | 
44 | CC(C)C[C@H](N)C(=O)O [Leu] | 125 µM | 147 µM |  |  | 
45 | O=C(O)CCC(=O)O [Succinic acid] | 139 µM | 164 µM |  |  | 
46 | 1-Methylnicotinamide |  |  | 2.9E−04 | 2.4E−04 | 1.2
47 | NCCCCN [Putrescine] |  | 1.7 µM |  |  | 
48 | O=C(O)CC(O)(CC(=O)O)C(=O)O [Citric acid] | 335 µM | 332 µM |  |  | 
49 | N[C@@H](Cc1c[nH]cn1)C(=O)O [His] | 58 µM | 70 µM |  |  | 
50 | C[C@H](N)C(=O)O [Ala] | 282 µM | 355 µM |  |  | 
51 | O=c1ccn([C@@H]2O[C@H](COP(=O)(O)OP(=O)(O)OP(=O)(O)O)[C@@H](O)[C@H]2O)c(=O)[nH]1 [UTP] |  | 2.2 µM |  |  | 
52 | Nc1nc2c(ncn2[C@@H]2O[C@H](COP(=O)(O)OP(=O)(O)O)[C@@H](O)[C@H]2O)c(=O)[nH]1 [GDP] |  | 3.0 µM |  |  | 
53 | O=C[C@H](O)[C@@H](O)[C@H](O)[C@H](O)COP(=O)(O)O [Glucose 6-phosphate] | 2.3 µM | 2.6 µM |  |  | 
54 | NCCCCNCCCN [Spermidine] | 1.2 µM | 1.2 µM |  |  | 
55 | O=C(O)[C@H](O)[C@@H](O)[C@H](O)[C@H](O)CO [Gluconic acid] | 18 µM | 1.5 µM |  |  | 
56 | Nc1ncnc2c1ncn2[C@@H]1O[C@H](COP(=O)(O)OP(=O)(O)O)[C@@H](O)[C@H]1O [ADP] | 1.0 µM | 4.7 µM |  |  | 
57 | O=C(O)/C=C(/CC(=O)O)C(=O)O [cis -Aconitic acid] | 23 µM | 23 µM |  |  | 
58 | CC(O)CC(=O)O (stereo not drawn) [3-Hydrocybutric acid] | 406 µM | 237 µM |  |  | 
